Assay results taken from patent US20090110632A1 (published 2009).
Results are given in words; binding and its absence hold for the method and conditions named. Some entries that bind do so weakly or less than the wild type.

Chains of the proteins cited; added tags and fusions are not shown. Residues count along the entry.
UniProt P15941, residues 126-265: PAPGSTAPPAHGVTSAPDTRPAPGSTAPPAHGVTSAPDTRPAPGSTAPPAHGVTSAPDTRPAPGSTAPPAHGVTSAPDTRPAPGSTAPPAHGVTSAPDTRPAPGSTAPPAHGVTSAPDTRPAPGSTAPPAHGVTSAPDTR

How the values were obtained:
[1] = biological target: MUC1-GST fusion protein containing seven variable number tandem repeat (VNTR) region (UniProt P15941); test: ELISA, plate-coated MUC1-GST
[2] = biological target: MUC1-GST fusion protein containing seven variable number tandem repeat (VNTR) region (UniProt P15941); test: ELISA, plate-coated MUC1-GST; NS0 against CHO material
[3] = biological target: MUC1-GST fusion protein containing seven variable number tandem repeat (VNTR) region (UniProt P15941); test: ELISA, plate-coated MUC1-GST; antibody from stable NS0 line
[4] = biological target: MUC1-GST fusion protein containing seven variable number tandem repeat (VNTR) region (UniProt P15941); test: ELISA, plate-coated MUC1-GST; antibody from transient CHO transfection
[5] = biological target: MUC1-GST fusion protein containing seven variable number tandem repeat (VNTR) region (UniProt P15941); test: ELISA, plate-coated MUC1-GST; antibody from transient transfection

B1: N56A HMFG1 (antibody, human IgG1, kappa, V domains shown)
VH: QVQLVQSGAEVKKPGASVKVSCKASGYTFSAYWIEWVRQAPGKGLEWVGEILPGSANSRYNEKFKGRVTVTRDTSTNTAYMELSSLRSEDTAVYYCARSYDFAWFAYWGQGTLVTVSS
VL: DIQMTQSPSSLSASVGDRVTITCKSSQSLLYSSNQKIYLAWYQQKPGKAPKLLIYWASTRESGVPSRFSGSGSGTDFTFTISSLQPEDIATYYCQQYYRYPRTFGQGTKVEIKR
binding [1]: binds

B2: N56C HMFG1 (antibody, human IgG1, kappa, V domains shown)
VH: QVQLVQSGAEVKKPGASVKVSCKASGYTFSAYWIEWVRQAPGKGLEWVGEILPGSCNSRYNEKFKGRVTVTRDTSTNTAYMELSSLRSEDTAVYYCARSYDFAWFAYWGQGTLVTVSS
VL: DIQMTQSPSSLSASVGDRVTITCKSSQSLLYSSNQKIYLAWYQQKPGKAPKLLIYWASTRESGVPSRFSGSGSGTDFTFTISSLQPEDIATYYCQQYYRYPRTFGQGTKVEIKR
binding [1]: binds

B3: N56G HMFG1 (antibody, human IgG1, kappa, V domains shown)
VH: QVQLVQSGAEVKKPGASVKVSCKASGYTFSAYWIEWVRQAPGKGLEWVGEILPGSGNSRYNEKFKGRVTVTRDTSTNTAYMELSSLRSEDTAVYYCARSYDFAWFAYWGQGTLVTVSS
VL: DIQMTQSPSSLSASVGDRVTITCKSSQSLLYSSNQKIYLAWYQQKPGKAPKLLIYWASTRESGVPSRFSGSGSGTDFTFTISSLQPEDIATYYCQQYYRYPRTFGQGTKVEIKR
notes: also called N56G mutant
binding [1]: binds | binding [2]: binds | binding [3]: binds | binding [4]: binds

B4: N56V HMFG1 (antibody, human IgG1, kappa, V domains shown)
VH: QVQLVQSGAEVKKPGASVKVSCKASGYTFSAYWIEWVRQAPGKGLEWVGEILPGSVNSRYNEKFKGRVTVTRDTSTNTAYMELSSLRSEDTAVYYCARSYDFAWFAYWGQGTLVTVSS
VL: DIQMTQSPSSLSASVGDRVTITCKSSQSLLYSSNQKIYLAWYQQKPGKAPKLLIYWASTRESGVPSRFSGSGSGTDFTFTISSLQPEDIATYYCQQYYRYPRTFGQGTKVEIKR
binding [1]: binds | binding [5]: binds
